# Assay results reported in patent publication US20160287621A1, “BIOLOGICAL PRODUCTION OF NAD PRECURSORS AND ANALOGS” (PRESIDENT AND FELLOWS OF HARVARD COLLEGE, priority 2013, published 2016).
# At least one structure is not confirmed: it was looked up by name or label, or the drawing left a doubt.
# Test system: Human dermal fibroblasts (HDFa)
# Assay: NAD+ levels in human dermal fibroblasts treated for 24 hrs
# Assay type: cell-based
# Conditions: 50 μM pure NMN plus different concentrations of Folate or SAM
# Protocol: A and B) Human dermal fibroblasts (HDFa) were treated with various concentration of NMN extract or pure NMN from Sigma (St. Louis, Mo.) respectively for 24 hrs and NAD+ levels were determined.
# A) and B) Human dermal fibroblasts (HDFa) were treated with 50 μM of pure NMN and different concentration of Folate or S-adenosyl-L-methionine (SAM) respectively for 24 hrs and NAD^+ levels were determined.
# The effect of pure NMN and partially purified NMN extract on the NAD^+ level in cells was investigated. Briefly, human dermal fibroblasts (HDFa) were treated with varying concentrations of NMN extract or pure NMN for 24 hours and NAD^+ levels were determined. Pure NMN was obtained from Sigma. Partially purified NMN extract was obtained using the methods described above.
smiles,measurement,value
Nc1nc(=O)c2nc(CNc3ccc(C(=O)N[C@@H](CCC(=O)O)C(=O)O)cc3)cnc2[nH]1 [folate],effect for raising NAD+ levels in combination with NMN,synergistic effect
